Measured values from publication PMC6072100, “Exploring the links between peptoid antibacterial activity and toxicity” (MedChemComm, 2017).
Square brackets hold non-standard residues; d marks the D form. Peptide text beside a SMILES is read from it. N(4-F-Bzl)Gly = O=C(O)CNCc1ccc(F)cc1; Gly(N-(CH2)6NH2) = NCCCCCCNCC(=O)O; Nspe = C[C@H](NCC(=O)O)c1ccccc1; Nphe = O=C(O)CNCc1ccccc1; Nlys = NCCCCNCC(=O)O

Test system: Escherichia coli K-12 wild-type strain (W3110/ATCC27325)
Format: cell-based
Conditions: for Selectivity Index HaCaT, E. coli: ED50 HaCaT / MIC E. coli; for Selectivity Index HepG2, E. coli: ED50 HepG2 / MIC E. coli
Protocol: Escherichia coli K-12 wild-type strain (W3110/ATCC27325, F^–, λ^–, rpoS(Am), rph-1, Inv(rrnD-rrnE)), Pseudomonas aeruginosa PA01 (ATCC 15692) Staphylococcus aureus (3R7089 strain Oxford/ATCC9144) and Staphylococcus epidermidis (laboratory strain from clinical isolate) were selected for bacteriological studies as representative Gram-negative (E. coli and P. aeruginosa) and Gram-positive (S. aureus and S. epidermidis) species. Bacterial cultures were prepared by streaking bacterial strains onto LB agar plates with an inoculation loop and incubated overnight at 37 °C. A single colony was selected and placed in 5 mL of Iso-sensitest broth (Oxoid, ThermoScientific) and incubated with shaking for 16–18 h at 37 °C to provide liquid cultures for testing.
MIC values were obtained according to the protocol described by J. M. Andrews et al.[58] and were conducted in 96-well plates (Sarstedt). Bacteria were grown from overnight cultures in Iso-sensitest broth to an A650nm of 0.07 equivalent to a 0.5 MacFarland standard (240 μM BaCl2 in 0.18 M H2SO4). This culture was diluted ten-fold with Iso-sensitest broth before use. Peptoids were initially dissolved in DMSO (5 mM) and diluted further in Iso-sensitest broth to achieve a concentration range of 4–200 μM using 2-fold serial dilutions. 50 μl of inoculum and 50 μl of peptoid solution were added to each test well (final concentration range of 2–100 μM). Experiments were performed in triplicate. A positive control for bacterial growth contained only the inoculum and Iso-sensitest broth. Other controls contained the inoculum and serial dilutions of ampicillin (from 250 μg mL^–1 to 2 μg mL^–1), serial dilutions of DMSO and the inoculum to confirm no inhibitory effect on bacterial growth, and Iso-sensitest broth alone as a sterile control. […] Quantitative data was attained from absorbance values using a Biotek Synergy H4 plate reader.
Antibacterial MIC determination
Escherichia coli K-12 wild-type strain (W3110 / ATCC27325, F-, λ-, rpoS(Am), rph-1, Inv(rrnD-rrnE)), Pseudomonas aeruginosa PA01 (ATCC 15692) Staphylococcus aureus (3R7089 strain Oxford / ATCC9144) and Staphylococcus epidermidis (laboratory strain from clinical isolate) were selected for bacteriological studies as representative Gram-negative (E. coli and P. aeruginosa) and Gram-positive (S. aureus and S. epidermidis) species. Bacterial cultures were prepared by streaking bacterial strains onto LB agar plates with an inoculation loop and incubated overnight at 37 °C.
A single colony was selected and placed in 5 mL of Iso-sensitest broth (Oxoid, ThermoScientific) and incubated with shaking for 16-18 h at 37 °C to provide liquid […]
MIC values were obtained according to the protocol described by J. M. Andrews et al.1 and were conducted in 96-well plates (Sarstedt). Bacteria were grown from overnight cultures in Iso-sensitest broth to an A650nm of 0.07 equivalent to a 0.5 MacFarland standard (240 μM BaCl2 in 0.18 M H2SO4). This culture was diluted ten-fold with Iso-sensitest broth before use. Peptoids were initially dissolved in DMSO (5 mM) and diluted further in Iso-sensitest broth to achieve a concentration range of 4 – 200 µM using 2-fold serial dilutions. 50 μl of inoculum and 50 μl of peptoid solution were added to each test well (final concentration range of 2 – 100 µM). Experiments were performed in triplicate. A positive control for bacterial growth contained only the inoculum and Iso-sensitest broth. Other controls contained the inoculum and serial dilutions of ampicillin (from 250 µg/mL to 2 µg/mL), serial dilutions of DMSO and the inoculum to confirm no inhibitory effect on bacterial growth, and Iso-sensitest broth alone as a sterile control. […]
growth after incubation at 37 °C for 16 h with shaking. Quantitative data was attained from absorbance values using a Biotek Synergy H4 plate reader.

| Compound | Selectivity Index HaCaT, E. coli | Selectivity Index HepG2, E. coli |
| --- | --- | --- |
| C[C@@H](c1ccccc1)N(CC(N)=O)C(=O)CN(C(=O)CN(CCCCCCN)C(=O)CN(C(=O)CN(C(=O)CN(CCCCCCN)C(=O)CN(C(=O)CN(C(=O)CNCCCCCCN)[C@@H](C)c1ccccc1)[C@@H](C)c1ccccc1)[C@@H](C)c1ccccc1)[C@@H](C)c1ccccc1)[C@@H](C)c1ccccc1 [Peptoid 11, (NahNspeNspe)3] (H-[Gly(N-(CH2)6NH2)][Nspe][Nspe][Gly(N-(CH2)6NH2)][Nspe][Nspe][Gly(N-(CH2)6NH2)][Nspe][Nspe]-NH2) | > 4 | > 4 |
| NCCCCNCC(=O)N(CC(=O)N(CC(=O)N(CCCCN)CC(=O)N(CC(=O)N(CC(=O)N(CCCCN)CC(=O)N(CC(=O)N(CC(=O)N(CCCCN)CC(=O)N(CC(=O)N(CC(N)=O)Cc1ccc(F)cc1)Cc1ccc(F)cc1)Cc1ccc(F)cc1)Cc1ccc(F)cc1)Cc1ccc(F)cc1)Cc1ccc(F)cc1)Cc1ccc(F)cc1)Cc1ccc(F)cc1 [Peptoid 22, (NLysNpfbNpfb)4] (H-[Nlys][N(4-F-Bzl)Gly][N(4-F-Bzl)Gly][Nlys][N(4-F-Bzl)Gly][N(4-F-Bzl)Gly][Nlys][N(4-F-Bzl)Gly][N(4-F-Bzl)Gly][Nlys][N(4-F-Bzl)Gly][N(4-F-Bzl)Gly]-NH2) | 4 | 2 |
| NCCCCCCNCC(=O)N(CC(=O)N(CC(=O)N(CCCCCCN)CC(=O)N(CC(=O)N(CC(=O)N(CCCCCCN)CC(=O)N(CC(=O)N(CC(=O)N(CCCCCCN)CC(=O)N(CC(=O)N(CC(N)=O)Cc1ccccc1)Cc1ccccc1)Cc1ccccc1)Cc1ccccc1)Cc1ccccc1)Cc1ccccc1)Cc1ccccc1)Cc1ccccc1 [Peptoid 1, (NahNpheNphe)4] (H-[Gly(N-(CH2)6NH2)][Nphe][Nphe][Gly(N-(CH2)6NH2)][Nphe][Nphe][Gly(N-(CH2)6NH2)][Nphe][Nphe][Gly(N-(CH2)6NH2)][Nphe][Nphe]-NH2) | > 8 | > 8 |
